Laboratory results: the supplement of paper PMC10849652
The list shows a part of the results.

Amino acid sequences for entries named in this document (tags omitted). A change or cut given only in a name is not applied to a line headed by its entry.
UniProt P61962: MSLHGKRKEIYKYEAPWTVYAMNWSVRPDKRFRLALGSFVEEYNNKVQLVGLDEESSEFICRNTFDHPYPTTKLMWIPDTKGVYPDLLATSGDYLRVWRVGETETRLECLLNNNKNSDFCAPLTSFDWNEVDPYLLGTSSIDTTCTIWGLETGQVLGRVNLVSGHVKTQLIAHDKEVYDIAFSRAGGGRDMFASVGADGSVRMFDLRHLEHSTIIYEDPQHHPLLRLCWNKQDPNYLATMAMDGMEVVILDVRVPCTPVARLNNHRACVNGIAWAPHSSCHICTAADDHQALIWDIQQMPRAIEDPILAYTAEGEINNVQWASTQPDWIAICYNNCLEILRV
UniProt Q13618, whole entry, looked up: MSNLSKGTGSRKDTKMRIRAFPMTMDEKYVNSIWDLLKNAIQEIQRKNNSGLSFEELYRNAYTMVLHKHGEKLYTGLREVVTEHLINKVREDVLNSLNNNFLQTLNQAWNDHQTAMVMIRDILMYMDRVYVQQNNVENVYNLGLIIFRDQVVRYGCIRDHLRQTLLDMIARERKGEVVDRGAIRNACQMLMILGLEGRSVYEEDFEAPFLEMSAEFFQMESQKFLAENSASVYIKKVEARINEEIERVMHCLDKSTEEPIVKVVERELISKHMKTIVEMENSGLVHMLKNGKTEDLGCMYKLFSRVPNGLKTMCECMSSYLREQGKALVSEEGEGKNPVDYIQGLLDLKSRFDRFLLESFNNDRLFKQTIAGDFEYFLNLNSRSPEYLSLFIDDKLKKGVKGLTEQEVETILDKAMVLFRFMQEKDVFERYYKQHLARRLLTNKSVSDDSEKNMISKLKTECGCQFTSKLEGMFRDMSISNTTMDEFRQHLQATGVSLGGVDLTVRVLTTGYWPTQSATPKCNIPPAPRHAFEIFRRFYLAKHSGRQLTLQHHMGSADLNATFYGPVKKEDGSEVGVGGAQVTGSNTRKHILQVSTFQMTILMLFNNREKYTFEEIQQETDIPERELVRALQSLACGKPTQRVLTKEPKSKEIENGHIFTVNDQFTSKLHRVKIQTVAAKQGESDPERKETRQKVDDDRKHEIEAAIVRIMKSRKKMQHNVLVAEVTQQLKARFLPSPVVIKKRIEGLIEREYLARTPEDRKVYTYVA
UniProt P01034: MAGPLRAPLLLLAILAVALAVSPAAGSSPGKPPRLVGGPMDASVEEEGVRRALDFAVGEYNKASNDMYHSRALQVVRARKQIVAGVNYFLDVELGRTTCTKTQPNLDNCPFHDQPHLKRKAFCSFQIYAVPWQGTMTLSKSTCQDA
UniProt Q8WVC6: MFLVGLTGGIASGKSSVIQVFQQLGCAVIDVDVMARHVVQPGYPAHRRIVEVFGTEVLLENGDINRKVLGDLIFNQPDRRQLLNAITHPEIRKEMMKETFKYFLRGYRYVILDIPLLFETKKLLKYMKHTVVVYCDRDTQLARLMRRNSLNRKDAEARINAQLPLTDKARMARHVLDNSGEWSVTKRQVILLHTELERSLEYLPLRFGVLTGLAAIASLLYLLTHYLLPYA
UniProt Q9UHQ9: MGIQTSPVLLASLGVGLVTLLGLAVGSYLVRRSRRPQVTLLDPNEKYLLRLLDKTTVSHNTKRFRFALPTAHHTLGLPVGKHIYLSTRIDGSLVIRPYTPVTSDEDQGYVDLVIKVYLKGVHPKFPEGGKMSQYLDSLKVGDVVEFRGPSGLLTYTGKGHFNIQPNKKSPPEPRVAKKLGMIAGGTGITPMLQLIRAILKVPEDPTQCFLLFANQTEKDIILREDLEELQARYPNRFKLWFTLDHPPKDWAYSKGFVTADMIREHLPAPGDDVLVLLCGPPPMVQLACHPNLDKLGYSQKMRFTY
UniProt Q13619, whole entry, looked up: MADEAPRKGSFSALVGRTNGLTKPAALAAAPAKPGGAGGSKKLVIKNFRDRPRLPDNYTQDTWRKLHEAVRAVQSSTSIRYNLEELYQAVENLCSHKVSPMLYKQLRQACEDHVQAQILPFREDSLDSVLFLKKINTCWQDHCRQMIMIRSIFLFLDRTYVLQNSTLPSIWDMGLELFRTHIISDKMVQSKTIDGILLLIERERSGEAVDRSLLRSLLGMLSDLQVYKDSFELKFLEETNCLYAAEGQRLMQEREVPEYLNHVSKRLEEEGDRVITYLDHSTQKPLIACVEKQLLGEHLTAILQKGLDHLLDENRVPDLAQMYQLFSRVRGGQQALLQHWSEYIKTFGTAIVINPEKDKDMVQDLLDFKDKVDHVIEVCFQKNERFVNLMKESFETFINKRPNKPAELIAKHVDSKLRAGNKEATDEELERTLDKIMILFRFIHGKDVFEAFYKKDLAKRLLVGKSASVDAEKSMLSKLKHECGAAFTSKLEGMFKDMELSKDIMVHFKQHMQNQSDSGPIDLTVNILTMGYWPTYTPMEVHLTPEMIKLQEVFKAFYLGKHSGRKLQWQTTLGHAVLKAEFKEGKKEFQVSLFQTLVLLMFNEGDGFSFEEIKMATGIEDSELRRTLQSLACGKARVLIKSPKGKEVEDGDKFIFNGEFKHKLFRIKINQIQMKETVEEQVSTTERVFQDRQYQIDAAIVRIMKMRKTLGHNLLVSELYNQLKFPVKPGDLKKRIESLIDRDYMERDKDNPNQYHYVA
UniProt Q13616, whole entry, looked up: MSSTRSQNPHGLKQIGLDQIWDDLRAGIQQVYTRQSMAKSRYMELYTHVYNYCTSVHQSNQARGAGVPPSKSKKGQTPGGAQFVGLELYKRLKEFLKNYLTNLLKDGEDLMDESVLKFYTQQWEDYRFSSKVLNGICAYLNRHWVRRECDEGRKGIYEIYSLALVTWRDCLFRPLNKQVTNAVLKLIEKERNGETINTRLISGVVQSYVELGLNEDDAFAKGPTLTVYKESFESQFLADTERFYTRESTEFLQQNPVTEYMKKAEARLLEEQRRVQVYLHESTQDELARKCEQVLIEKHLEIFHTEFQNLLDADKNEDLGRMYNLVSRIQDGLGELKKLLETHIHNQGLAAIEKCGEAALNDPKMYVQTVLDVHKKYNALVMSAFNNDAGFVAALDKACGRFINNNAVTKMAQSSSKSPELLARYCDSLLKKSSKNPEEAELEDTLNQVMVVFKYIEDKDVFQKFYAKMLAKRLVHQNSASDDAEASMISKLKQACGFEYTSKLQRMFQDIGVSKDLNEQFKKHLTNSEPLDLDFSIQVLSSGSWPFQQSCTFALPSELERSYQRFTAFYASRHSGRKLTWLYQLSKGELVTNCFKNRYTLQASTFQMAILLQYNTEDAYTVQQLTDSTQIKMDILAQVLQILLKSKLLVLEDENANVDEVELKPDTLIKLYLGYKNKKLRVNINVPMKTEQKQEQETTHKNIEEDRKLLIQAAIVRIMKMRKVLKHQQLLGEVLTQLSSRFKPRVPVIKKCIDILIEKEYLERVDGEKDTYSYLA
UniProt P32929, whole entry, looked up: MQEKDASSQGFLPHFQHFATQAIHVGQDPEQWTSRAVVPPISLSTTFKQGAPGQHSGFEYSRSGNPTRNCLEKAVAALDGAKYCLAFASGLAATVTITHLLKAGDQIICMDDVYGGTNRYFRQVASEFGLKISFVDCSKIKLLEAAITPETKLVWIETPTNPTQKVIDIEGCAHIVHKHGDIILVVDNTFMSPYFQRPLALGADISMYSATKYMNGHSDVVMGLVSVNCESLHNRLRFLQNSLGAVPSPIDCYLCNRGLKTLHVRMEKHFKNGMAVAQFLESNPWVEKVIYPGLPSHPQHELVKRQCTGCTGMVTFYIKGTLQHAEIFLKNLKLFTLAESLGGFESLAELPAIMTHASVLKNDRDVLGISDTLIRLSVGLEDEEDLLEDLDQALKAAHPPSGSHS
UniProt Q93034, whole entry, looked up: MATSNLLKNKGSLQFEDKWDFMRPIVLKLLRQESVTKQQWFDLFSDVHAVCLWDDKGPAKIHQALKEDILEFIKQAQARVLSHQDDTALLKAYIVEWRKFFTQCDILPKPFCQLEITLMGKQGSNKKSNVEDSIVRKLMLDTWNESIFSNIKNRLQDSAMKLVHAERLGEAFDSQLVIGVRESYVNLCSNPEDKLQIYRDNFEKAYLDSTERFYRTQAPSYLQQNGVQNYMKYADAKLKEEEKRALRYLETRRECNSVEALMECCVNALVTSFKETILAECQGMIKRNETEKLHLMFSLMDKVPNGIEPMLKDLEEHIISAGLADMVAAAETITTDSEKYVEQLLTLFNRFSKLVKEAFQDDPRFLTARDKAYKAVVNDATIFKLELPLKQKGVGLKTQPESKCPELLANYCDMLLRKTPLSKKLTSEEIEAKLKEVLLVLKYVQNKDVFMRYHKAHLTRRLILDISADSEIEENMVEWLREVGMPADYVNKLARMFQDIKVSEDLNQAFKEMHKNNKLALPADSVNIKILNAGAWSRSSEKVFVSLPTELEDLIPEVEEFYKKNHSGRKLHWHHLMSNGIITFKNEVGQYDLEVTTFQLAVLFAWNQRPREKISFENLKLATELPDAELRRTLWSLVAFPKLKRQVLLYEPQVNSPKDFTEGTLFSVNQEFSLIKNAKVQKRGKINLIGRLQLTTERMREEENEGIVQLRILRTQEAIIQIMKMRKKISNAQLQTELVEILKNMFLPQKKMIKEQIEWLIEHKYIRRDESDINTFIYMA
UniProt P27707: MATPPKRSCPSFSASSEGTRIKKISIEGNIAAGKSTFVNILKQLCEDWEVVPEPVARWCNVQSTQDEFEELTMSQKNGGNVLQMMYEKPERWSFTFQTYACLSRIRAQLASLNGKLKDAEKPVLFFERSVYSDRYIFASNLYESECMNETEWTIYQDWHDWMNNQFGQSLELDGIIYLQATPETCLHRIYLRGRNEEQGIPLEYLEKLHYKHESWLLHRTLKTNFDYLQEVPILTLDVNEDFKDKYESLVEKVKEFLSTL
UniProt Q5JQC4: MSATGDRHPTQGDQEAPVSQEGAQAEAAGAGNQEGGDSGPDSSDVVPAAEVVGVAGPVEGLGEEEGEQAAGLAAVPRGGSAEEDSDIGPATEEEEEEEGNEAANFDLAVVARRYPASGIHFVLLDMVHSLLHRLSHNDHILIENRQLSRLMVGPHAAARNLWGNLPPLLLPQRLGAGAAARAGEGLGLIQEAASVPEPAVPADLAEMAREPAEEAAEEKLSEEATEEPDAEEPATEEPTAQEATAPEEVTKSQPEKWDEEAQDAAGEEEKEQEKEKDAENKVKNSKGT
UniProt P00167, whole entry, looked up: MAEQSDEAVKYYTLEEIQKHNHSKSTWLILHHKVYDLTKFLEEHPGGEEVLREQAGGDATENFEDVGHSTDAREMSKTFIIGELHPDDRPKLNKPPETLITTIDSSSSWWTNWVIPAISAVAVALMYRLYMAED
UniProt Q9NWV4: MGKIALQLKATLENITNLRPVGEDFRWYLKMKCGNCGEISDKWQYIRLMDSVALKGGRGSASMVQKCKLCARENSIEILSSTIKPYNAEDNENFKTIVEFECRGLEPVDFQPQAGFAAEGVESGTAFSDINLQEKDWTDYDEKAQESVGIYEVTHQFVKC
UniProt Q6PI48: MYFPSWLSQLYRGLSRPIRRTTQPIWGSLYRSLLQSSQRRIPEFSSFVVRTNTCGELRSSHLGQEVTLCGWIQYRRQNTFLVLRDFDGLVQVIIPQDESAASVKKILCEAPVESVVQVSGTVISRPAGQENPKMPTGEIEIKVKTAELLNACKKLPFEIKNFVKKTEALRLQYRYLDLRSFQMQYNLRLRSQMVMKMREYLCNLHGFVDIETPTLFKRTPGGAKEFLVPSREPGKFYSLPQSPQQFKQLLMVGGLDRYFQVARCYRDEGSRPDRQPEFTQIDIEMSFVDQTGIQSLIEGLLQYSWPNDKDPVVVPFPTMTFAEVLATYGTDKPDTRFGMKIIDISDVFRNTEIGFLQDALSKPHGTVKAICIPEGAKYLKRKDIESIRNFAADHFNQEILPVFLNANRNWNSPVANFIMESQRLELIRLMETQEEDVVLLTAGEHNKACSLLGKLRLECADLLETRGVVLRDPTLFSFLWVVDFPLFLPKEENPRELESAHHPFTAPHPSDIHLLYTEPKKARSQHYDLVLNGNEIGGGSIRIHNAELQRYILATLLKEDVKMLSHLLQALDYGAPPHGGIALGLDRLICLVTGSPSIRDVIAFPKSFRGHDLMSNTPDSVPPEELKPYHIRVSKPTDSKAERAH
UniProt P17812: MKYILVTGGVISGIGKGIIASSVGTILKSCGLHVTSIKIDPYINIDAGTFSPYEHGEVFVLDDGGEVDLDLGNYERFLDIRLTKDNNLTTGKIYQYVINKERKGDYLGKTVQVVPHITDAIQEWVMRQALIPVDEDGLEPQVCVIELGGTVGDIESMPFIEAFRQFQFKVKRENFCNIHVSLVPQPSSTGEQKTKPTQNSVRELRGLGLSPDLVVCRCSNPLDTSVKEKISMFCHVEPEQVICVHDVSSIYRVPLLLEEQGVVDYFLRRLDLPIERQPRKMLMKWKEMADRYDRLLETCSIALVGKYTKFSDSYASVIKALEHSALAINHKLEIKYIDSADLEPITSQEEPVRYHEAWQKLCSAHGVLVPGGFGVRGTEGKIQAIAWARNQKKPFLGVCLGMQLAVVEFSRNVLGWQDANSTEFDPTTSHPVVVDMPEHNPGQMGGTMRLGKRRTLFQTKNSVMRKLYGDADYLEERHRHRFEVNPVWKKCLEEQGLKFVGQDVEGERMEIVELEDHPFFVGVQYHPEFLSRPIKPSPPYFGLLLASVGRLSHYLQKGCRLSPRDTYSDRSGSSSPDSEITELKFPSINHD

Columns and labels:
Assay in all cases: log2 fold change, soluble protein after heating vs DMSO (PISA); higher = thermal stabilisation; K562 cells, 10 uM, 30 min; active = over 0.2 and 3.5 SD of the protein, either way, in both replicates (recomputed)
[1] = compound: CC[C@@H]1C(=O)N(C)c2cnc(Nc3ccc(C(=O)NC4CCN(C)CC4)cc3OC)nc2N1C1CCCC1
How it was run: (§1)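 K562 cells (2×10^6 cells/mL) were treated with 10 μM compound for 30 min, and aliquots were heated for 3 min over 48°C-58°C. Pooled aliquots were extracted in PBS with 0.5% NP-40 at 4°C, and the supernatant after 21,000xg for 90 min was measured by TMTpro 16plex LC-MS/MS with channel sums equalised. Reported thermal stability, relative to control samples and from duplicates, is a log2 fold change.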

[2] = compound: CC[C@@H]1C(=O)N(C)c2cnc(Nc3ccc(C(=O)N[C@H]4CC[C@H](N5CCN(CC6CC6)CC5)CC4)cc3OC)nc2N1C(C)C [volasertib]
How it was run: as §1

[3] = compound: CC[C@H](C)N1C=C(C2=C(C=C(C=C21)C3=CN=C(C=C3)N4CCNCC4)C(=O)NCC5=C(C=C(NC5=O)C)C)C
How it was run: as §1

[4] = compound: CC[C@H](C)[C@@H](C(=O)N[C@@H]([C@@H](C)O)C(=O)N[C@@H](CC(C)C)C(=O)[C@]1(CO1)C)NC(=O)[C@H]([C@@H](C)CC)N(C)C(=O)C [epoxomicin]
How it was run: as §1

[5] = compound: CCn1c(C(=O)N(C2CC2)C2CC2)cc2c3c(ncn3C)c(Nc3cc(C)n(C)n3)nc21
How it was run: as §1

[6] = compound: CCn1cc(-c2ccnc3[nH]c(-c4cccc(CN(C)C)c4)cc23)c(-c2ccc(NC(=O)N(C)C)cc2)n1
How it was run: as §1

[7] = compound: CN(C)CC(=O)Nc1ccc2[nH]c(=O)c3ccccc3c2c1
How it was run: as §1

[8] = compound: CN(CCOC1=CC=C(C=C1)C[C@H]2C(=O)NC(=O)S2)C3=CC=CC=N3 (racemic) [rosiglitazone]
How it was run: as §1

[9] = compound: CN1C2=C(C3=C1C(=O)N(N=C3)CC4=CC(=CC=C4)N)SC(=C2)S(=O)C
How it was run: as §1

[10] = compound: CN1CCC(CNc2ccc3ncc(-c4cccc(OC(F)(F)F)c4)n3n2)CC1
How it was run: as §1

Measured: log2 fold change

DCAF7 (UniProt P61962)
inactive: [1] 0.048 | [2] 0.031 | [3] 0.054 | [4] 0.049 | [5] 0.001 | [6] -0.016 | [7] 0 | [8] 0.042 | [9] -0.003 | [10] 0.011

CUL3 (UniProt Q13618)
inactive: [1] -0.028 | [2] -0.005 | [3] 0.02 | [4] 0.041 | [5] -0.022 | [6] 0.005 | [7] 0.014 | [8] 0.013 | [9] -0.073 | [10] 0.029

DCTN2 isoform 2 (UniProt Q13561)
inactive: [1] -0.022 | [2] -0.171 | [3] 0.058 | [4] 0.065 | [5] 0.01 | [6] -0.031 | [7] 0.001 | [8] 0.014 | [9] -0.036 | [10] 0.011

CSTB (UniProt P04080)
inactive: [1] 0.109 | [2] 0.031 | [3] 0 | [4] 0.114 | [5] 0.026 | [6] -0.076 | [7] 0.026 | [8] -0.022 | [9] 0.026 | [10] 0.086

CST3 (UniProt P01034)
inactive: [1] 0.219 | [2] 0.187 | [3] -0.025 | [4] 0.051 | [5] 0.035 | [6] 0.116 | [7] -0.073 | [8] 0 | [9] -0.061 | [10] 0.037

DCAKD (UniProt Q8WVC6)
inactive: [1] -0.132 | [2] -0.051 | [3] -0.026 | [4] -0.072 | [5] 0.019 | [6] 0.069 | [7] 0.072 | [8] -0.028 | [9] -0.007 | [10] -0.17

DAP (UniProt P51397)
inactive: [1] 0.042 | [2] 0.048 | [3] -0.029 | [4] 0.051 | [5] 0.018 | [6] 0.007 | [7] -0.029 | [8] 0.034 | [9] -0.001 | [10] -0.025

CYB5R1 (UniProt Q9UHQ9)
inactive: [1] 0.073 | [2] 0.042 | [3] -0.015 | [4] 0.012 | [5] -0.006 | [6] -0.038 | [7] -0.002 | [8] 0.009 | [9] -0.067 | [10] -0.016

CUL4A (UniProt Q13619)
inactive: [1] -0.031 | [2] -0.152 | [3] 0.017 | [4] 0.015 | [5] -0.013 | [6] -0.032 | [7] 0.009 | [8] 0.019 | [9] -0.044 | [10] 0

CWF19L1 (UniProt Q69YN2)
inactive: [1] 0.001 | [2] -0.1 | [3] 0.016 | [4] 0.018 | [5] 0.001 | [6] 0.018 | [7] 0.028 | [8] -0.011 | [9] -0.005 | [10] 0.006

CUL1 (UniProt Q13616)
inactive: [1] 0.014 | [2] 0.047 | [3] -0.032 | [4] -0.013 | [5] 0.004 | [6] -0.027 | [7] -0.016 | [8] -0.005 | [9] -0.051 | [10] -0.017

DAGLB (UniProt Q8NCG7)
inactive: [1] 0.048 | [2] -0.093 | [3] -0.034 | [4] 0.205 | [5] 0.004 | [6] -0.13 | [7] -0.021 | [8] -0.013 | [9] -0.02 | [10] -0.131

CSRP1 (UniProt P21291)
inactive: [1] 0.003 | [2] 0.062 | [3] -0.021 | [4] 0.017 | [5] 0.014 | [6] -0.034 | [7] 0.002 | [8] 0 | [9] 0 | [10] -0.001

Copied from the listing (2 entries):
DAP (UniProt P51397)
inactive: [1] 0.042 | [2] 0.048 | [3] -0.029 | [4] 0.051 | [5] 0.018 | [6] 0.007 | [7] -0.029 | [8] 0.034 | [9] -0.001 | [10] -0.025

CYB5R1 (UniProt Q9UHQ9)
inactive: [1] 0.073 | [2] 0.042 | [3] -0.015 | [4] 0.012 | [5] -0.006 | [6] -0.038 | [7] -0.002 | [8] 0.009 | [9] -0.067 | [10] -0.016

Next part.

CTH (UniProt P32929)
inactive: [1] 0.044 | [2] 0.026 | [3] -0.03 | [4] 0.009 | [5] 0.022 | [6] -0.023 | [7] -0.016 | [8] -0.002 | [9] -0.101 | [10] 0.029

CUL5 (UniProt Q93034)
inactive: [1] 0.039 | [2] 0.025 | [3] -0.016 | [4] -0.008 | [5] -0.014 | [6] -0.021 | [7] -0.003 | [8] 0.025 | [9] -0.051 | [10] -0.037

DAP3 (UniProt P51398)
inactive: [1] -0.006 | [2] 0.044 | [3] 0.127 | [4] -0.043 | [5] -0.01 | [6] -0.069 | [7] -0.044 | [8] -0.06 | [9] 0.065 | [10] 0.005

CUL4B (UniProt K4DI93)
inactive: [1] -0.009 | [2] -0.048 | [3] 0.022 | [4] 0.026 | [5] 0 | [6] -0.009 | [7] -0.005 | [8] 0 | [9] -0.079 | [10] -0.003

CT45A10 (UniProt P0DMU9)
inactive: [1] 0.103 | [2] 0.237 | [3] -0.032 | [4] -0.219 | [5] 0.05 | [6] 0.2 | [7] -0.044 | [8] -0.094 | [9] 0.092 | [10] 0.135

DCK (UniProt P27707)
inactive: [1] 0.023 | [2] -0.01 | [3] -0.02 | [4] -0.032 | [5] -0.039 | [6] -0.138 | [7] 0.014 | [8] -0.007 | [9] -0.001 | [10] 0.063

DAZAP1 (UniProt Q96EP5)
inactive: [1] 0.099 | [2] 0.031 | [3] 0.001 | [4] -0.077 | [5] -0.009 | [6] 0.173 | [7] -0.028 | [8] -0.009 | [9] -0.015 | [10] 0.198

CYB5R3 isoform 3 (UniProt P00387)
inactive: [1] 0.023 | [2] -0.022 | [3] -0.028 | [4] -0.004 | [5] 0.008 | [6] -0.017 | [7] -0.035 | [8] -0.006 | [9] -0.026 | [10] 0.044

CT47A1 (UniProt Q5JQC4)
inactive: [1] -0.047 | [2] -0.057 | [3] 0.028 | [4] 0.029 | [5] 0.006 | [6] -0.075 | [7] -0.083 | [8] -0.015 | [9] -0.011 | [10] 0.015

CYB5B, A0A499FJ32
inactive: [1] 0.016 | [2] -0.097 | [3] -0.047 | [4] -0.033 | [5] 0.031 | [6] -0.025 | [7] 0.047 | [8] 0.062 | [9] -0.009 | [10] 0.1

CYB5A (UniProt P00167)
inactive: [1] -0.023 | [2] -0.007 | [3] -0.056 | [4] 0.057 | [5] -0.111 | [6] 0.065 | [7] 0.049 | [8] 0.036 | [9] 0 | [10] 0.241

DARS (UniProt P14868)
inactive: [1] 0.05 | [2] 0.062 | [3] -0.017 | [4] -0.041 | [5] 0.002 | [6] 0.028 | [7] -0.009 | [8] -0.013 | [9] 0.045 | [10] -0.01

DCAF11 (UniProt Q8TEB1)
inactive: [1] 0.058 | [2] -0.005 | [3] 0.024 | [4] -0.019 | [5] -0.027 | [6] -0.003 | [7] -0.019 | [8] -0.013 | [9] -0.057 | [10] 0.026

CZIB (UniProt Q9NWV4)
inactive: [1] -0.013 | [2] -0.1 | [3] 0.008 | [4] 0.045 | [5] 0.002 | [6] 0.021 | [7] -0.012 | [8] 0.009 | [9] -0.054 | [10] -0.011

DARS2 (UniProt Q6PI48)
inactive: [1] 0.064 | [2] 0.067 | [3] -0.026 | [4] 0.003 | [5] -0.018 | [6] 0.013 | [7] -0.01 | [8] -0.019 | [9] -0.03 | [10] 0.06

CTPS1 (UniProt P17812)
inactive: [1] 0.015 | [2] 0.002 | [3] -0.021 | [4] 0.011 | [5] -0.014 | [6] 0.025 | [7] -0.009 | [8] 0.003 | [9] -0.048 | [10] -0.071

DBI isoform 5 (UniProt P07108)
inactive: [1] 0.053 | [2] 0.043 | [3] -0.004 | [4] 0.242 | [5] -0.002 | [6] 0.006 | [7] -0.037 | [8] -0.052 | [9] -0.029 | [10] -0.015
